Results are given as percent effect. The controls that fix the scale are not given in the record; negative values are as filed. This is an unselected part of the compounds tested.

Protein sequences, listed by entry. Tags and fused reporters are not part of them. Residues count along the entry.
UniProt I6X8D2, whole entry: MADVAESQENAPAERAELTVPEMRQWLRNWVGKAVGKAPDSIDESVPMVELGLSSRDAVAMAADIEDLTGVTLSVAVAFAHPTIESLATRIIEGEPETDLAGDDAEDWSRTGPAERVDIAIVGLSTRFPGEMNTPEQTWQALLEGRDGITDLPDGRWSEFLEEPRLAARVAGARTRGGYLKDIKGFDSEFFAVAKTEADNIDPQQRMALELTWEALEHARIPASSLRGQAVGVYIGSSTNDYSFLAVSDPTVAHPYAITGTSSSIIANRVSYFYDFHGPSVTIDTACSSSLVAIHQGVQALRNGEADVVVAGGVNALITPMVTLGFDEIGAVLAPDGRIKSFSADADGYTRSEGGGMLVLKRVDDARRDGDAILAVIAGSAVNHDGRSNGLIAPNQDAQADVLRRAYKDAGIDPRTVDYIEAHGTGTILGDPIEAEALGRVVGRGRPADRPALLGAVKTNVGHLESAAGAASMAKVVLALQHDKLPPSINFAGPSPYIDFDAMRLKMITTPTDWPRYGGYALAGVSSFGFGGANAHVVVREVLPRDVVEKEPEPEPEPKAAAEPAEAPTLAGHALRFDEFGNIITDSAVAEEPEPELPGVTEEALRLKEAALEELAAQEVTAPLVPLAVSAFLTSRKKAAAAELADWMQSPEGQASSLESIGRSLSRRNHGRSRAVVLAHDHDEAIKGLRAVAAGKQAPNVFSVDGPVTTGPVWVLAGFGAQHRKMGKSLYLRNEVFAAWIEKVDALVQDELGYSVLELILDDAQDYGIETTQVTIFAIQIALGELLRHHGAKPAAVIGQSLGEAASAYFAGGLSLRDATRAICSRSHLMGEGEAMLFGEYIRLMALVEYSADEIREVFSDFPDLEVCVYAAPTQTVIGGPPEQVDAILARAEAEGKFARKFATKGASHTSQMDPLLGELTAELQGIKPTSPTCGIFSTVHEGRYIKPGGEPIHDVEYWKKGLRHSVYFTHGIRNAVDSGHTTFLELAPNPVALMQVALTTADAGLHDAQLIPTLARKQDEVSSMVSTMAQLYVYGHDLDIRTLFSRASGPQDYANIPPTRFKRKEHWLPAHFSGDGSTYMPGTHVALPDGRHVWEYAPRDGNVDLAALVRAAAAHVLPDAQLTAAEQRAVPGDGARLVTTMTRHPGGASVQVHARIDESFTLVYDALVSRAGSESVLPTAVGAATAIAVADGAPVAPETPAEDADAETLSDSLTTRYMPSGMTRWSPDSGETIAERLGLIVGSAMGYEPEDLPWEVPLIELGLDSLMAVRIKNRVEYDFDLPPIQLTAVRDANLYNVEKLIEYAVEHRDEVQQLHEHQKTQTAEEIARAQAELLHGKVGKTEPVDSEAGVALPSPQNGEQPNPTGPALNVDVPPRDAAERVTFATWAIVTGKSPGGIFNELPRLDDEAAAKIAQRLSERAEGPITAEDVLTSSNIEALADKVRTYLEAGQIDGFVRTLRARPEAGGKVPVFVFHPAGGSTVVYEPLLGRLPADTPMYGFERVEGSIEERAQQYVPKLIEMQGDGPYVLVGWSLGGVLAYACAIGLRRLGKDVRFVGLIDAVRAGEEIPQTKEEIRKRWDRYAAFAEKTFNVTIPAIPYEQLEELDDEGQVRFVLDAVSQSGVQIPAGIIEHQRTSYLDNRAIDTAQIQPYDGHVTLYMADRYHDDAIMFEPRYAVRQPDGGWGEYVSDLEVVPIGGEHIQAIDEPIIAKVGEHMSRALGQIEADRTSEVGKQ
UniProt P9WFT3, whole entry: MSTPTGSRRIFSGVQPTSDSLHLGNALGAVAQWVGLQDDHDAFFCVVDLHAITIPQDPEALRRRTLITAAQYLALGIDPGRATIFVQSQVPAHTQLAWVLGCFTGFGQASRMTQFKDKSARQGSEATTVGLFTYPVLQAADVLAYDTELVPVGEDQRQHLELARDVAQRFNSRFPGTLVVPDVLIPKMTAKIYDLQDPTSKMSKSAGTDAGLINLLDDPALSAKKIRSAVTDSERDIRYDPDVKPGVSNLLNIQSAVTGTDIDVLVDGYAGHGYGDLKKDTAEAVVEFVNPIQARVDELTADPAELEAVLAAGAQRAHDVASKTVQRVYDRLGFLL
UniProt P9WNZ1, whole entry: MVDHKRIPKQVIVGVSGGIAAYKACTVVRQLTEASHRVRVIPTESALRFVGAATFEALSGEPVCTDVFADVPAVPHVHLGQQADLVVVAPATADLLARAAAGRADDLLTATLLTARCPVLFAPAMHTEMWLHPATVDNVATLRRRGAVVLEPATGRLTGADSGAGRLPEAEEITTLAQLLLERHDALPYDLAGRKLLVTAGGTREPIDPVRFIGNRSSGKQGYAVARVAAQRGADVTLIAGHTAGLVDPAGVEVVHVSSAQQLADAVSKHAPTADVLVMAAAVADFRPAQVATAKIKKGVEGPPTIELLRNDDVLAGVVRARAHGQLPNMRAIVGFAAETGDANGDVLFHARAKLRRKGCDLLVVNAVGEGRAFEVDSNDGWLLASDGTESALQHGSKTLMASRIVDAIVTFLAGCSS
UniProt Q8IDJ8, 1-583: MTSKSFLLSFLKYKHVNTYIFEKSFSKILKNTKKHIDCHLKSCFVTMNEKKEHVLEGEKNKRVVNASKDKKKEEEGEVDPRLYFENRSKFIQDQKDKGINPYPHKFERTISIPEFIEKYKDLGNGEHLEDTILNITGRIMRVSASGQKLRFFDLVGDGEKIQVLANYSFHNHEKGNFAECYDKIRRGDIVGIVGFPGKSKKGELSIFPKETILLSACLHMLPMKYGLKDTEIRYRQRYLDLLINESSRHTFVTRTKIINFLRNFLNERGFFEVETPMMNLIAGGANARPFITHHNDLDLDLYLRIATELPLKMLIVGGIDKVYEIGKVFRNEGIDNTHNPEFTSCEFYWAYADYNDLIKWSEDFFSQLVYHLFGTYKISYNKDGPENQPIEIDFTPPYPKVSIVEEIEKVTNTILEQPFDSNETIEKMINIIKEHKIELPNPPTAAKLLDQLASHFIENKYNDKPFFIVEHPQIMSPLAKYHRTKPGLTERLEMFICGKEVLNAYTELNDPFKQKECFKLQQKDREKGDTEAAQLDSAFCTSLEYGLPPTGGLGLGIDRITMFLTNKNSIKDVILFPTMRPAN

Pks13 thioesterase: 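Enzyme assay of the thioesterase domain of polyketide synthase 13; the read-out is not stated. Target: Polyketide synthase Pks13, Mycobacterium tuberculosis (UniProt I6X8D2). Concentration: 30 µM. Higher reads as stronger inhibition (inferred from which compounds were picked for retests). Size under these conditions: about 67,000 compounds, about 300 of them at 50% or above in at least one test.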
MtTrpRS: 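Tryptophan-tRNA ligase, Mycobacterium tuberculosis (UniProt P9WFT3). Enzyme assay of tryptophanyl-tRNA synthetase; the read-out is not stated. Compounds at 10 µM. Higher most likely means stronger inhibition; the record gives no direction and few retests gave an IC50. Of about 65,000 compounds tested this way, about 64 (0.098%) reached 50% or more in at least one test.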
CoaBC: 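Enzyme assay of CoaBC with a phosphate dye (Biomol Green) read at 650 nm. Target: Coenzyme A biosynthesis protein CoaBC, Mycobacterium tuberculosis (UniProt P9WNZ1). Concentration: 30 µM. Higher reads as stronger inhibition, judged from the few compounds that gave an IC50. Most strong results did not repeat in a second test. Size under these conditions: about 67,000 compounds, about 40 of them at 50% or above in at least one test.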
PfKRS1: 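Lysine-tRNA ligase, Plasmodium falciparum 3D7 (UniProt Q8IDJ8). Enzyme assay of the cytosolic lysyl-tRNA synthetase in 384-well plates, read by luminescence. Compounds at 30 µM. Higher reads as stronger inhibition, judged from the few compounds that gave an IC50. About 69,000 compounds were tested under these conditions; 0.071% (about 49) showed 50% or more at least once.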

{"compound": "COCC(=O)N1CCC2(CC1)CC(c1cnn(C)c1)C(=O)N2", "stereo": "stereo not drawn", "Pks13 thioesterase": -21.85, "MtTrpRS": -1.673, "CoaBC": -0.2105, "PfKRS1": 5.684}
{"compound": "CN1C[C@@H](n2cnc(-c3ccccc3)c2-c2ncc[nH]2)C[C@H]1C(=O)O", "Pks13 thioesterase": -1.654, "MtTrpRS": 8.382, "CoaBC": 10.43, "PfKRS1": -4.194}
{"compound": "COC(=O)CNC(=O)C(C(C)C)n1cnc2cc(F)c(F)cc21", "stereo": "stereo not drawn", "Pks13 thioesterase": -14.82, "MtTrpRS": 1.433, "CoaBC": 3.586, "PfKRS1": 5.049}
{"compound": "COc1ccc(CN2C[C@@H](F)[C@@H](OCc3nc4ccccc4[nH]3)C2)cn1", "Pks13 thioesterase": -4.471, "MtTrpRS": -2.212, "CoaBC": 6.483, "PfKRS1": 11.29}
{"compound": "COc1ccc(C(CNC(=O)Nc2cc(C)nn2C)N(C)C)cc1", "stereo": "stereo not drawn", "Pks13 thioesterase": -29.89, "MtTrpRS": -6.136, "CoaBC": 6.394, "PfKRS1": -1.054}
{"compound": "Cc1ccccc1-c1cncc(C2CCN(CCO)CC2)n1", "Pks13 thioesterase": 25.33, "CoaBC": 2.663, "PfKRS1": 2.821}
{"compound": "Cc1cccc(NC(=O)[C@@H]2CCCN2Cc2ccccc2C#N)n1", "Pks13 thioesterase": -0.3601, "MtTrpRS": 0.7965, "CoaBC": 0.4132, "PfKRS1": 9.309}
{"compound": "CC(=O)NCCNC(=O)NCC1Cc2ccccc2O1", "stereo": "stereo not drawn", "Pks13 thioesterase": -9.803, "MtTrpRS": 3.097, "CoaBC": 8.418, "PfKRS1": 3.426}
{"compound": "CCN1Cc2ccccc2CC2(CCN(CC3CCC3)CC2)C1=O", "Pks13 thioesterase": -47.11, "CoaBC": 0.2439, "PfKRS1": -2.606}
{"compound": "NC(=O)CC1CCN(S(=O)(=O)N2CCCC2c2ccco2)CC1", "stereo": "stereo not drawn", "Pks13 thioesterase": 12.02, "MtTrpRS": -4.854, "CoaBC": -2.457, "PfKRS1": 1.109}
{"compound": "COc1ccccc1OCCN(C)Cc1c(C2CC2)[nH]c2ncccc12", "Pks13 thioesterase": -19.52, "MtTrpRS": 15.08, "CoaBC": -7.99, "PfKRS1": -1.39}
{"compound": "CC1CCN(c2nccn3c(=O)[nH]nc23)CC1", "Pks13 thioesterase": -2.257, "MtTrpRS": -9.075, "CoaBC": -7.895, "PfKRS1": 3.805}
{"compound": "CCCC1CCCN(Cc2csc(-c3ncccn3)n2)CC1", "stereo": "stereo not drawn", "Pks13 thioesterase": -15.89, "MtTrpRS": -5.515, "CoaBC": 6.102, "PfKRS1": -0.3858}
{"compound": "CC(NCCN1CCN(C(=O)C2CCCC2)CC1)c1ccccn1", "stereo": "stereo not drawn", "Pks13 thioesterase": -25.53, "MtTrpRS": -3.749, "CoaBC": 0.6483, "PfKRS1": 4.705}
{"compound": "CCc1c(C)nn2c(O)cc(C3CCN(C(=O)C4CC4)C3)nc12", "stereo": "stereo not drawn", "Pks13 thioesterase": 19.81, "MtTrpRS": -9.763, "CoaBC": 3.453, "PfKRS1": 0.08491}
{"compound": "Cn1nc(CNC(=O)c2ccc(OC(F)(F)F)cc2)c2c1CCOC2", "Pks13 thioesterase": -9.681, "MtTrpRS": -3.732, "CoaBC": -2.24, "PfKRS1": -1.88}
{"compound": "COc1cc(CCC(=O)NC2CCN(C)CC2)ccc1OCC(F)(F)F", "Pks13 thioesterase": -12.44, "MtTrpRS": -0.7661, "CoaBC": -2.216, "PfKRS1": 2.394}
{"compound": "CCCN1CCN(Cc2cccc(OC)c2)[C@H]2CS(=O)(=O)C[C@H]21", "Pks13 thioesterase": -23.8, "MtTrpRS": -0.3943, "CoaBC": 5.646, "PfKRS1": 1.974}
{"compound": "O=C(c1ccco1)N1C(CN2CCOCC2)[C@]2(O)CC[C@H]1CC2", "stereo": "stereo partly drawn", "Pks13 thioesterase": 4.607, "CoaBC": 3.148, "PfKRS1": 4.547}
{"compound": "CNC(=O)[C@@H](c1ccccc1F)N1CCC[C@H]1C(=O)NC1CCCC1", "MtTrpRS": 1.952, "CoaBC": 1.935, "PfKRS1": 3.151}
{"compound": "CCC(C)(C)NC(=O)CN(C)C(c1cccc(F)c1)c1ccccn1", "stereo": "stereo not drawn", "Pks13 thioesterase": -34.39, "MtTrpRS": -2.638, "CoaBC": 1.687, "PfKRS1": 5.414}
{"compound": "CC(C)CCC1=NC2(CCN(C(=O)N3CCN(C)CC3)CC2)C(=O)N1", "Pks13 thioesterase": -12.13, "MtTrpRS": 0.1874, "CoaBC": 4.555, "PfKRS1": -2.37}
{"compound": "Cc1nc(N(C)C2CCCCC2)ncc1C(C)NC(=O)c1cccnc1", "stereo": "stereo not drawn", "Pks13 thioesterase": -27.11, "MtTrpRS": -3.144, "CoaBC": 4.673, "PfKRS1": 5.165}
{"compound": "CN(C)C(=O)N1CC[C@@H](c2ccc3ccccc3c2)[C@H](O)C1", "Pks13 thioesterase": 0.8441, "MtTrpRS": 5.383, "CoaBC": -3.704, "PfKRS1": -2.52}
{"compound": "Cc1nsc(NC(=O)N2CCCCC2CCO)n1", "stereo": "stereo not drawn", "Pks13 thioesterase": -6.115, "MtTrpRS": -9.213, "CoaBC": 7.2, "PfKRS1": 4.56}
{"compound": "CC(C)(C)c1ncc2c(n1)CN(C(=O)c1ccncc1)C2", "Pks13 thioesterase": -14.8, "MtTrpRS": -2.385, "CoaBC": -2.366, "PfKRS1": 4.997}
{"compound": "Cc1ccc(C(=O)N(Cc2cccc(F)c2)C2CC2)c(=O)[nH]1", "Pks13 thioesterase": -10.31, "MtTrpRS": -2.23, "CoaBC": 4.545, "PfKRS1": 2.805}
{"compound": "NC(=O)CC1CCN(Cc2ccccc2OCC(F)(F)F)CC1", "Pks13 thioesterase": 7.479, "MtTrpRS": -3.374, "CoaBC": 2.42, "PfKRS1": 2.505}

For reference, 2 entries once more:

With CC1CCN(c2nccn3c(=O)[nH]nc23)CC1 the screen gave Pks13 thioesterase: -2.257%; MtTrpRS: -9.075%; CoaBC: -7.895%; PfKRS1: 3.805%.
With O=C(c1ccco1)N1C(CN2CCOCC2)[C@]2(O)CC[C@H]1CC2 (stereo partly drawn) the screen gave Pks13 thioesterase: 4.607%; CoaBC: 3.148%; PfKRS1: 4.547%.

Data taken from ChEMBL document CHEMBL3988442, “University of Dundee, Small-Polar-MMV Screening Library” (2021).